No constants are given. Whether binding was seen depends on the method and setting. In cells and extracts the contact can be indirect. Some results given as binding are weak or reduced against the parent protein; the word gives no strength. One block for each binder: values may come before it.
Experiments:
Experiment in all cases: co-IP; GFP-tagged bait precipitated with mouse anti-GFP on Protein G Sepharose from yeast crude extracts (50 mM Tris/HCl pH 7.4, 300 mM NaCl, 10% glycerin, 1% Triton X-100), overnight at 4°C; HA-tagged prey detected by Western blot; control IP with unspecific IgG
Sur7ΔN (S. cerevisiae) = Sur7ΔN (S. cerevisiae) (UniProt P54003)
Nce102 (S. cerevisiae) = Nce102 (S. cerevisiae) (UniProt Q12207)
Sur7ΔC (S. cerevisiae) = Sur7ΔC (S. cerevisiae) (UniProt P54003)
Sur7 (S. cerevisiae) = Sur7 (S. cerevisiae) (UniProt P54003)

binding (Sur7ΔN (S. cerevisiae)): binds
B1: Sur7ΔN (domain or fragment, UniProt P54003 7-302)
chain: IVLRLVVLLFLAGNTLLLILMIISGATDHYPVNRFYWVQGNTTGIPNAGDETRWTFWGACLQDKDGSDTCTSNLAPAYPISPVDNFNTHINVPHQFISKRDAFYYLTRFSFCFFWIALAFVGVSFILYVLTWCSKMLSEMVLILMSFGFVFNTAAVVLQTAASAMAKNAFHDDHRSAQLGASMMGMAWASVFLCIVEFILLVFWSVRARLASTYSIDNSRYRTSSRWNPFHREKEQATDPILTATGPEDMQQSASIVGPSSNANPVTATAATENQPKGINFFTIRKSHERPDDVSV

binding (Nce102 (S. cerevisiae)): binds
B2: Nce102 (protein, UniProt Q12207 1-173)
chain: MLALADNILRIINFLFLVISIGLISSLLNTQHRHSSRVNYCMFACAYGIFTDSLYGVFANFIEPLAWPLVLFTLDFLNFVFTFTAGTVLAVGIRAHSCNNSSYVDSNKITQGSGTRCRQAQAAVAFLYFSCAIFLAKTLMSVFNMISNGAFGSGSFSKRRRTGQVGVPTISQV

binding (Sur7ΔC (S. cerevisiae)): binds
B3: Sur7ΔC (domain or fragment, UniProt P54003 1-210)
chain: MVKVWNIVLRLVVLLFLAGNTLLLILMIISGATDHYPVNRFYWVQGNTTGIPNAGDETRWTFWGACLQDKDGSDTCTSNLAPAYPISPVDNFNTHINVPHQFISKRDAFYYLTRFSFCFFWIALAFVGVSFILYVLTWCSKMLSEMVLILMSFGFVFNTAAVVLQTAASAMAKNAFHDDHRSAQLGASMMGMAWASVFLCIVEFILLVFW

binding (Sur7 (S. cerevisiae)): binds
B4: Sur7 (protein, UniProt P54003 1-302)
chain: MVKVWNIVLRLVVLLFLAGNTLLLILMIISGATDHYPVNRFYWVQGNTTGIPNAGDETRWTFWGACLQDKDGSDTCTSNLAPAYPISPVDNFNTHINVPHQFISKRDAFYYLTRFSFCFFWIALAFVGVSFILYVLTWCSKMLSEMVLILMSFGFVFNTAAVVLQTAASAMAKNAFHDDHRSAQLGASMMGMAWASVFLCIVEFILLVFWSVRARLASTYSIDNSRYRTSSRWNPFHREKEQATDPILTATGPEDMQQSASIVGPSSNANPVTATAATENQPKGINFFTIRKSHERPDDVSV

From paper PMC10702824
